Measured values reported in PubChem BioAssay AID330 (DTP/NCI, 2004).
The list shows only some results of the screen, not a fair sample: it gathers tests that were run many times, whatever their T/C, doses with no T/C, and many T/C values between a quarter and a half above the control. Further doses and runs are listed elsewhere. T/C gives the treated animals as a percentage of the vehicle group. Some entries give survivors of the animals treated and no T/C: the source holds a T/C of zero for them, seemingly a mark for toxic or unscored doses. Some survivor counts are full or nearly so, which does not show that the dose was tolerated: survival well below the control is almost never listed, so the zero probably covers shortened survival too. Survivors were counted at the toxicity check, usually on the fifth day, unless a day is given; later deaths do not show. Schedules are NCI's codes, read here as Q, the interval in days (D) or hours (H), X, the number of doses. Some doses were run more than once; the results are listed from low to high. For survival time, this PubChem deposit counts one and a half times the control or more as active, and values a quarter to a half above the control carry no call in these data; other NCI protocols may use other cut-offs. Some T/C values are followed by the survivors on the day toxicity was checked, most often the fifth; where none is given, no animal had died by that day.

Test system: P388 leukemia ip, CD2F1 mice, survival T/C
Test: NCI In Vivo Anticancer Drug Screen. Data for tumor model P388 Leukemia (intraperitoneal) in CD2F1 (CDF1) mice
Conditions: T/C endpoint: median survival time, higher T/C = longer survival
[1] = dose: 200.0 mg/kg/injection, schedule: Q01DX009 (ip), vehicle: saline with Tween-80
[2] = dose: 25.0 mg/kg/injection, schedule: Q01DX009 (ip), vehicle: saline
[3] = dose: 50.0 mg/kg/injection, schedule: Q01DX009 (ip), vehicle: saline
[4] = dose: 240.0 mg/kg/injection, schedule: Q01DX005 (ip), vehicle: Klucel (hydroxypropylcellulose) (HPC)
[5] = dose: 200.0 mg/kg/injection, schedule: Q01DX009 (ip), vehicle: saline
[6] = dose: 240.0 mg/kg/injection, schedule: Q01DX005 (ip), vehicle: saline
[7] = dose: 12.5 mg/kg/injection, schedule: Q01DX009 (ip), vehicle: Klucel (hydroxypropylcellulose) (HPC)
[8] = dose: 25.0 mg/kg/injection, schedule: Q01DX009 (ip), vehicle: Klucel (hydroxypropylcellulose) (HPC)
[9] = dose: 50.0 mg/kg/injection, schedule: Q01DX009 (ip), vehicle: Klucel (hydroxypropylcellulose) (HPC)
[10] = dose: 100.0 mg/kg/injection, schedule: Q01DX009 (ip), vehicle: Klucel (hydroxypropylcellulose) (HPC)
[11] = dose: 200.0 mg/kg/injection, schedule: Q01DX009 (ip), vehicle: Klucel (hydroxypropylcellulose) (HPC)
[12] = dose: 100.0 mg/kg/injection, schedule: Q01DX009 (ip), vehicle: saline
[13] = dose: 100.0 mg/kg/injection, schedule: Q01DX005 (ip), vehicle: Klucel (hydroxypropylcellulose) (HPC)

Structure (SMILES): Nc1ccccc1SC1CC(=O)N(c2ccccc2Cl)C1=O (configuration not stated)
- survivor count [1]: 3 of 6
- survivor count (dose: 400.0 mg/kg/injection, schedule: Q01DX009 (ip), vehicle: saline with Tween-80): 3 of 6

Structure (SMILES): C=C1C(=O)OC2C(O)CCCC12 (configuration not stated)
- survivor count (dose: 200.0 mg/kg/injection, schedule: Q04DX003 (ip), vehicle: Klucel (hydroxypropylcellulose) (HPC)): 3 of 6

Structure (SMILES): NNC(=O)CCc1ccccc1Br
- survivor count [1]: 4 of 6

Structure (SMILES): O=C1CCSC(=S)N1c1ccc(Cl)c([N+](=O)[O-])c1
- T/C (dose: 200.0 mg/kg/injection, schedule: Q01DX009 (ip), vehicle: suspension in saline): 133 % of control

Structure (SMILES): O=NNc1ccc([N+](=O)[O-])cn1
- T/C [2]: 130 and 135 % of control
- T/C [3]: 128 % of control
- survivor count (dose: 50.0 mg/kg/injection, schedule: Q01DX009 (ip), vehicle: water): 3 of 6 and 6 of 6
- survivor count (dose: 100.0 mg/kg/injection, schedule: Q01DX009 (ip), vehicle: water): 0 of 6
- survivor count (dose: 200.0 mg/kg/injection, schedule: Q01DX009 (ip), vehicle: water): 0 of 6

Structure (SMILES): CCN(CC)Cc1c(C)[nH]c2ccc3c(c2c1=O)CCCC3
- survivor count [4]: 0 of 6

Structure (SMILES): COc1ccc(CC(N)c2ccccc2)cc1 (configuration not stated)
- survivor count [5]: 0 of 6

Structure (SMILES): Cc1cccc(Cl)c1NC(=O)CN(C)CCN1CCCC1
- survivor count [6]: 0 of 6

Structure (SMILES): CCCNCC/C=C/[Si](C)(C)C
- survivor count [6]: 0 of 6

Structure (SMILES): C#CCNC1=C(C)C(=O)C2=C(C1=O)[C@H](COC(N)=O)[C@]1(OC)[C@@H]3N[C@@H]3CN21
- T/C (dose: 3.0 mg/kg/injection, schedule: Q01DX001 (ip), vehicle: distilled water + Tween-80): 129 % of control
- T/C (dose: 6.0 mg/kg/injection, schedule: Q01DX001 (ip), vehicle: distilled water + Tween-80): 135 % of control
- T/C (dose: 12.0 mg/kg/injection, schedule: Q01DX001 (ip), vehicle: distilled water + Tween-80): 145 % of control
- T/C (dose: 24.0 mg/kg/injection, schedule: Q01DX001 (ip), vehicle: distilled water + Tween-80): 129 % of control [5 of 6 alive]

Structure (SMILES): O=NN(c1ccccc1)c1ccc([N+](=O)[O-])cc1
- survivor count [1]: 6 of 6

Structure (SMILES): CC(C)NCC(O)COc1cccc2[nH]c3ccccc3c12 (configuration not stated)
- survivor count (dose: 100.0 mg/kg/injection, schedule: Q01DX009 (ip), vehicle: saline with Tween-80): 0 of 6

Structure (SMILES): COc1ccc(C(=O)C(CN2CCCC2)CN2CCCC2)cc1
- T/C (dose: 30.0 mg/kg/injection, schedule: Q01DX005 (ip), vehicle: saline): 128 % of control
- T/C (dose: 30.0 mg/kg/injection, schedule: Q01DX009 (ip), vehicle: saline): 132 % of control
- survivor count (dose: 60.0 mg/kg/injection, schedule: Q01DX005 (ip), vehicle: saline): 3 of 6
- survivor count (dose: 120.0 mg/kg/injection, schedule: Q01DX005 (ip), vehicle: saline): 0 of 6
- survivor count [6]: 0 of 6

Structure (SMILES): CCCCN(CCCC)CC(O)c1c(OC)c2cc(Cl)ccc2c2ccc(Cl)cc12 (configuration not stated)
- survivor count (dose: 12.5 mg/kg/injection, schedule: Q01DX009 (ip), vehicle: saline with Tween-80): 6 of 6

Structure (SMILES): CN(C)CC(CN(C)C)C(=O)c1ccc(O)cc1
- survivor count (dose: 50.0 mg/kg/injection, schedule: Q01DX005 (ip), vehicle: saline): 0 of 5
- survivor count (dose: 100.0 mg/kg/injection, schedule: Q01DX005 (ip), vehicle: saline): 0 of 5
- survivor count (dose: 200.0 mg/kg/injection, schedule: Q01DX005 (ip), vehicle: saline): 0 of 5

Structure (SMILES): O=S1CCS(=O)C1c1ccccc1 (configuration not stated)
- survivor count (dose: 200.0 mg/kg/injection, schedule: Q01DX005 (ip), vehicle: other): 1 of 6

Structure (SMILES): [Cl][Sn]1([Cl])[CH2]CCCCCC[CH2][Sn]([Cl])([Cl])[CH2]CCCCCC[CH2]1
- survivor count (dose: 200.0 mg/kg/injection, schedule: Q01DX005 (ip), vehicle: saline with Tween-80): 6 of 6

Structure (SMILES): CC1CCCC(C2CC3CCCCC3C(N)[N-]2)[N-]1.O=[N+]([O-])O.O=[N+]([O-])O.[Cu+2] (configuration not stated)
- survivor count (dose: 25.0 mg/kg/injection, schedule: Q04DX002 (ip), vehicle: suspension in saline): 2 of 6
- survivor count (dose: 100.0 mg/kg/injection, schedule: Q04DX002 (ip), vehicle: suspension in saline): 0 of 6
- survivor count (dose: 200.0 mg/kg/injection, schedule: Q04DX002 (ip), vehicle: suspension in saline): 0 of 6
- survivor count (dose: 400.0 mg/kg/injection, schedule: Q04DX002 (ip), vehicle: suspension in saline): 0 of 6

Structure (SMILES): C=CCNC(=O)c1cc(N2CC2)c([N+](=O)[O-])cc1[N+](=O)[O-]
- survivor count [7]: 6 of 6
- T/C [8]: 97, 100, 101 % of control
- survivor count [8]: 6 of 6
- T/C [9]: 98, 101 [5 of 6 alive], 151 % of control
- survivor count [9]: 6 of 6
- T/C [10]: 99 [4 of 6 alive], 115, 131 % of control
- survivor count [10]: 6 of 6
- survivor count [11]: 0 of 6

Structure (SMILES): CCCCC(CC)C[N+]1(C)CCOCC1 (configuration not stated)
- survivor count [12]: 2 of 6
- survivor count [5]: 0 of 6

Structure (SMILES): O=C1C=C(Cl)C(O)C1(Cl)Cl (configuration not stated)
- survivor count [2]: 0 of 6
- survivor count [3]: 0 of 6
- survivor count [12]: 0 of 6
- survivor count [5]: 0 of 6

Structure (SMILES): CC(=O)OCC1OC(n2cc(F)c(=O)[nH]c2=O)C(OC(C)=O)C1OC(C)=O (configuration not stated)
- T/C (dose: 3.12 mg/kg/injection, schedule: Q01DX009 (ip), vehicle: Klucel (hydroxypropylcellulose) (HPC)): 134 % of control
- T/C (dose: 6.25 mg/kg/injection, schedule: Q01DX009 (ip), vehicle: Klucel (hydroxypropylcellulose) (HPC)): 142 % of control
- survivor count [7]: 6 of 6
- survivor count [8]: 6 of 6
- survivor count [9]: 6 of 6
- survivor count [11]: 6 of 6

Structure (SMILES): C[CH2][Sn]([CH2]C)[CH2]C.C[CH2][Sn]([CH2]C)[CH2]C
- survivor count (dose: 50.0 mg/kg/injection, schedule: Q01DX005 (ip), vehicle: Klucel (hydroxypropylcellulose) (HPC)): 1 of 6
- T/C [13]: 126 % of control
- survivor count [13]: 0 of 6
- survivor count (dose: 200.0 mg/kg/injection, schedule: Q01DX005 (ip), vehicle: Klucel (hydroxypropylcellulose) (HPC)): 0 of 6

Structure (SMILES): Cc1cccc(O)c1C(=O)OC(C)c1cccc2nc3c(C(=O)O)cccc3nc12 (configuration not stated)
- T/C (dose: 25.0 mg/kg/injection, schedule: Q01DX005 (ip), vehicle: DMSO): 130 % of control
- survivor count (dose: 50.0 mg/kg/injection, schedule: Q01DX005 (ip), vehicle: DMSO): 0 of 6

Structure (SMILES): CSC1=Nc2cccnc2Nc2cscc21
- survivor count (dose: 120.0 mg/kg/injection, schedule: Q01DX005 (ip), vehicle: saline with Tween-80): 6 of 6
- survivor count (dose: 240.0 mg/kg/injection, schedule: Q01DX005 (ip), vehicle: saline with Tween-80): 4 of 6

Structure (SMILES): NC(Cc1ccccc1)C(=O)CCl (configuration not stated)
- survivor count (dose: 50.0 mg/kg/injection, schedule: Q01DX001 (ip), vehicle: saline): 1 of 6
- survivor count (dose: 100.0 mg/kg/injection, schedule: Q01DX001 (ip), vehicle: suspension in saline): 0 of 6
- survivor count (dose: 200.0 mg/kg/injection, schedule: Q01DX001 (ip), vehicle: suspension in saline): 0 of 6
- survivor count (dose: 400.0 mg/kg/injection, schedule: Q01DX001 (ip), vehicle: suspension in saline): 0 of 6

Structure (SMILES): NC(=S)c1ccccc1[N+](=O)[O-]
- survivor count (dose: 400.0 mg/kg/injection, schedule: Q01DX001 (ip), vehicle: saline): 0 of 6

Structure (SMILES): CN(C)c1ccc(/C=N/NC(=O)c2ccccc2NC(=O)c2ccccc2Cl)cc1
- survivor count (dose: 30.0 mg/kg/injection, schedule: Q01DX005 (ip), vehicle: Klucel (hydroxypropylcellulose) (HPC)): 6 of 6
- survivor count (dose: 60.0 mg/kg/injection, schedule: Q01DX005 (ip), vehicle: Klucel (hydroxypropylcellulose) (HPC)): 6 of 6
- survivor count (dose: 120.0 mg/kg/injection, schedule: Q01DX005 (ip), vehicle: Klucel (hydroxypropylcellulose) (HPC)): 6 of 6
- survivor count [4]: 6 of 6
